Source: the supplement of paper PMC6411743
± gives the standard deviation of the averaged measurements. The entries are a selection whose mix differs from that of the whole data set.

Sequences of proteins named here, by UniProt entry; tags and fusion partners are left off. A change or cut given only in a name is not applied to a line headed by its entry.
UniProt Q01196, whole entry: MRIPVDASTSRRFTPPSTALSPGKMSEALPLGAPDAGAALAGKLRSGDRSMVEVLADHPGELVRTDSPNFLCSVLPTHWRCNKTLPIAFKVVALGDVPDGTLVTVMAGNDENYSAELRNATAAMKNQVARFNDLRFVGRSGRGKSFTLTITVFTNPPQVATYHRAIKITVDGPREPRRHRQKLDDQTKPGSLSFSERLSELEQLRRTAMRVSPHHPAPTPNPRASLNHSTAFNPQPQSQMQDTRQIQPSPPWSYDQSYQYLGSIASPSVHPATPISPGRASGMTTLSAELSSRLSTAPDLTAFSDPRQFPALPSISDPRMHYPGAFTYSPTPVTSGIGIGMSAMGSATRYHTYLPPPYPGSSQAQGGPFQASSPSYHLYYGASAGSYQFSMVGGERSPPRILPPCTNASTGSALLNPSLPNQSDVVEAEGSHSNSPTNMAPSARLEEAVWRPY
UniProt P56524: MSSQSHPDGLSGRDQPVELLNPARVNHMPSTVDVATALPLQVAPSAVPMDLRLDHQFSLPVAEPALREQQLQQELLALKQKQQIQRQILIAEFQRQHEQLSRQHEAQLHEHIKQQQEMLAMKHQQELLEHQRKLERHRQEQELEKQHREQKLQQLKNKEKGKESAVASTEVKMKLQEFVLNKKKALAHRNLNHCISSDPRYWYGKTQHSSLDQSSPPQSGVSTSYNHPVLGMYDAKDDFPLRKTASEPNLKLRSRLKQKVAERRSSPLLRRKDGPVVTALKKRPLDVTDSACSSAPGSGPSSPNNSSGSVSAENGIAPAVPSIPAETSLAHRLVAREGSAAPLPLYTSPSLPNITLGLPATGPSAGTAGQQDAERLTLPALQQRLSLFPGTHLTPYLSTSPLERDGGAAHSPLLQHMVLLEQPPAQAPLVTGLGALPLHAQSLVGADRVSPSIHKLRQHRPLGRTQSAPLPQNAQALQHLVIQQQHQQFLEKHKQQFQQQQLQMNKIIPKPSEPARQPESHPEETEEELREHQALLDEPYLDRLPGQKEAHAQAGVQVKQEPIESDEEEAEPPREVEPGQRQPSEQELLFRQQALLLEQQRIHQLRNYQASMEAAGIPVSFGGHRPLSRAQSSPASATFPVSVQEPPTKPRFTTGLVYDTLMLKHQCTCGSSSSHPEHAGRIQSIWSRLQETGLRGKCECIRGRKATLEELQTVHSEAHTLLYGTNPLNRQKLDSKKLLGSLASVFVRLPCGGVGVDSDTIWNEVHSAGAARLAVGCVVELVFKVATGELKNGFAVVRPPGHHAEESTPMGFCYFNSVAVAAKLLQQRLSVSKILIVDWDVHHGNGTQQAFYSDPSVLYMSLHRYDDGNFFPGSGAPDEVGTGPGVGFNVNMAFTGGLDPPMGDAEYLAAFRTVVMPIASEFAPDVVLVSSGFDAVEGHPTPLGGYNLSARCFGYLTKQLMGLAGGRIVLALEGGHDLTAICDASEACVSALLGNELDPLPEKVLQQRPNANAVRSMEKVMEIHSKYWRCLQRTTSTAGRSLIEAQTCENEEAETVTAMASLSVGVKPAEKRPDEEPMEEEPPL
UniProt Q00013: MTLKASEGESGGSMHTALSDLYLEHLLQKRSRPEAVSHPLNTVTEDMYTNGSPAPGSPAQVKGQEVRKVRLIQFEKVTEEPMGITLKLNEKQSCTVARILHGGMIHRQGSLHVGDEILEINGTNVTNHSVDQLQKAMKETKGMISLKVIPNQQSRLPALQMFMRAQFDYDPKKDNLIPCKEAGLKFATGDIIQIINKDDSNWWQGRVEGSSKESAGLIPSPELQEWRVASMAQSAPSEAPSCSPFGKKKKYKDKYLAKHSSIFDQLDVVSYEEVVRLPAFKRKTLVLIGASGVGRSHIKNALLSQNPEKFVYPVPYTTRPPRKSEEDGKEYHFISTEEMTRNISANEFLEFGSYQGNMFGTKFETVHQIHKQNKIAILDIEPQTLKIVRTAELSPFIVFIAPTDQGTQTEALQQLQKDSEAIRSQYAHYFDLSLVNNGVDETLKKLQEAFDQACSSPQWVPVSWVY
UniProt Q02535: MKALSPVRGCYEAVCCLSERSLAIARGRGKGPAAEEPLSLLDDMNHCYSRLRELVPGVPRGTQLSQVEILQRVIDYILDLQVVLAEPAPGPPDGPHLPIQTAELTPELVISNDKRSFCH
UniProt P56199, whole entry: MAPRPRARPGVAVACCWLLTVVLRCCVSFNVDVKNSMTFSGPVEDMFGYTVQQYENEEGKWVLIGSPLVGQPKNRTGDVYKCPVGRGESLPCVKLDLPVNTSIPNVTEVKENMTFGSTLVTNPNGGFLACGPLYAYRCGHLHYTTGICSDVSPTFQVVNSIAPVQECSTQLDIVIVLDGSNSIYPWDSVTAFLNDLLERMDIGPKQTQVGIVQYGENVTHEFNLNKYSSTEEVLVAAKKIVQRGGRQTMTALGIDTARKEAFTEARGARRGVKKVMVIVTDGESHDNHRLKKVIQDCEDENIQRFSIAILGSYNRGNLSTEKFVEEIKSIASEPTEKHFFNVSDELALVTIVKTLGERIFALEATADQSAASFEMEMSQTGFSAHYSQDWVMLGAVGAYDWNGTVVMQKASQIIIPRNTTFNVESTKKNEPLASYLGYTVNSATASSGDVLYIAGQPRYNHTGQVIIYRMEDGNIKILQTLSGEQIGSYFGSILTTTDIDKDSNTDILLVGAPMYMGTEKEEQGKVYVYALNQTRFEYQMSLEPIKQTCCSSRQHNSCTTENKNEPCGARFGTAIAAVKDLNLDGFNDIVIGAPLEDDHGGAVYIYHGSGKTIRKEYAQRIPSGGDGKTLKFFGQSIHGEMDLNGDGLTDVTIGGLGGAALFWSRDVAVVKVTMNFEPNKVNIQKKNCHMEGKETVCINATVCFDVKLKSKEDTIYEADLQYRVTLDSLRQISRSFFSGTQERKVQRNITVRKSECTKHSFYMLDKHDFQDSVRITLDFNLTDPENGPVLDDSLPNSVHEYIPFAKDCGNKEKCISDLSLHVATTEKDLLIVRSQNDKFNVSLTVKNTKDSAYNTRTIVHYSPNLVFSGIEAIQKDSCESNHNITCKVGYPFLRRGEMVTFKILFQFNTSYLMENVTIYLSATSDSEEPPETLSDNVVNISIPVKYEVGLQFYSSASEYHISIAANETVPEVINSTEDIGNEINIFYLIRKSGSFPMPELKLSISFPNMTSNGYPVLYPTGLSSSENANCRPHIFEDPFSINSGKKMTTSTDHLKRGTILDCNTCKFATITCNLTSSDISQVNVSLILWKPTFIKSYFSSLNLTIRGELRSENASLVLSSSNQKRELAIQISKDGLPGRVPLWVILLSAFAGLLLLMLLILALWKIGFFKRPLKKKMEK
UniProt P84095: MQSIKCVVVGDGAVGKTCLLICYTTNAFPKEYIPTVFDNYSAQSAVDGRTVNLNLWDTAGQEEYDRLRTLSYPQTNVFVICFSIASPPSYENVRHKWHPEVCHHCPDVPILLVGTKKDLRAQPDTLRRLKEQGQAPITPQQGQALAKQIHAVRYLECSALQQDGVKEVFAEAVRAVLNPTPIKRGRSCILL
UniProt Q03111: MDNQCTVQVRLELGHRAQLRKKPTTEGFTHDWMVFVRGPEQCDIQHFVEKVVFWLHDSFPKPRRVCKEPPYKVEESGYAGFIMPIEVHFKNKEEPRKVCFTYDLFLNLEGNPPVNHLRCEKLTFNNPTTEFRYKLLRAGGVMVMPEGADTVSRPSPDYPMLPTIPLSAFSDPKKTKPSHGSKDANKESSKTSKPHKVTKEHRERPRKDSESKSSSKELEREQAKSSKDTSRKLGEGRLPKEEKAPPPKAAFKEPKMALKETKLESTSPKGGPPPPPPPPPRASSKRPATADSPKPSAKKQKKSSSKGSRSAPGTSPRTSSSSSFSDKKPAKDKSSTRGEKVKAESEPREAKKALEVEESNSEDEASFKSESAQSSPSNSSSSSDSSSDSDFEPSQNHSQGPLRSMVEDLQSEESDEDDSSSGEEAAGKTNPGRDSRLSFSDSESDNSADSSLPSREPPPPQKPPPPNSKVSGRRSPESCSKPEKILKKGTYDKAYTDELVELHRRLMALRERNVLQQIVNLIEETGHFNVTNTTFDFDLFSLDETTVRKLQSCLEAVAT
UniProt P56937: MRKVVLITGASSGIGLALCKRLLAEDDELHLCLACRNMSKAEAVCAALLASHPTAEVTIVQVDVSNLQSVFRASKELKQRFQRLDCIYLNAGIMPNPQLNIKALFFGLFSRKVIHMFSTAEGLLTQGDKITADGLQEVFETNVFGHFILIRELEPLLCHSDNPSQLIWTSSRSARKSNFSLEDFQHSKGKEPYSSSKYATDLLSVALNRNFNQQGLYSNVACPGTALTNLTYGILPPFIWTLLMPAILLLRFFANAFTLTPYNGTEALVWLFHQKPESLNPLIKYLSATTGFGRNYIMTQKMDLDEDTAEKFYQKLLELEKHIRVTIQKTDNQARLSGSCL
UniProt P84090, whole entry, looked up: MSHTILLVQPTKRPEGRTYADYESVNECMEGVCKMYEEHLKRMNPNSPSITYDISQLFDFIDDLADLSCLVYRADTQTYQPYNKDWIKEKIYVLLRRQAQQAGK
UniProt Q05823: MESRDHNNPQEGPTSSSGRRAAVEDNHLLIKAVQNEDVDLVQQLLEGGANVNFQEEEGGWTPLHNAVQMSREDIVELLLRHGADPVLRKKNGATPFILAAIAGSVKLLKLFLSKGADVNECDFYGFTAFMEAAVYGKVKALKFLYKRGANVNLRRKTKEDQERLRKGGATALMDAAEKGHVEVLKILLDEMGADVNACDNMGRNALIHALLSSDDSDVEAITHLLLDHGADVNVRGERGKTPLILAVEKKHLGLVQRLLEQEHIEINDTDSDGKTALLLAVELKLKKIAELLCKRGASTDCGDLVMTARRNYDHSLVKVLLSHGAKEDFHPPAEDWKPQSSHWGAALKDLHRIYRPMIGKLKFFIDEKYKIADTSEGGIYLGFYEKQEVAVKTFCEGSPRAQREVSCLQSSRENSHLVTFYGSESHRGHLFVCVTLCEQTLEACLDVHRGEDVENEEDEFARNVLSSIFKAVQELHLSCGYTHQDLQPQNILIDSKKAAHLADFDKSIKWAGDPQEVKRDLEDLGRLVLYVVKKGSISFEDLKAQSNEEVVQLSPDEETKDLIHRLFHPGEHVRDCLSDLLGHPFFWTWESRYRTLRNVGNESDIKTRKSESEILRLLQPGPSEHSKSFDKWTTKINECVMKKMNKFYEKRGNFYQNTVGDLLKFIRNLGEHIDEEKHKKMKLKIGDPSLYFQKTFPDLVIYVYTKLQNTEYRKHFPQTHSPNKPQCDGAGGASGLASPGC
UniProt P68036, whole entry: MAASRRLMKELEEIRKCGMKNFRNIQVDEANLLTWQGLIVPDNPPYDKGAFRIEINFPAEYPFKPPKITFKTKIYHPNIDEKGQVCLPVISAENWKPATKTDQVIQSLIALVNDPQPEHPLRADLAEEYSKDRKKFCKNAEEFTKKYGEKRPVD
UniProt Q00978: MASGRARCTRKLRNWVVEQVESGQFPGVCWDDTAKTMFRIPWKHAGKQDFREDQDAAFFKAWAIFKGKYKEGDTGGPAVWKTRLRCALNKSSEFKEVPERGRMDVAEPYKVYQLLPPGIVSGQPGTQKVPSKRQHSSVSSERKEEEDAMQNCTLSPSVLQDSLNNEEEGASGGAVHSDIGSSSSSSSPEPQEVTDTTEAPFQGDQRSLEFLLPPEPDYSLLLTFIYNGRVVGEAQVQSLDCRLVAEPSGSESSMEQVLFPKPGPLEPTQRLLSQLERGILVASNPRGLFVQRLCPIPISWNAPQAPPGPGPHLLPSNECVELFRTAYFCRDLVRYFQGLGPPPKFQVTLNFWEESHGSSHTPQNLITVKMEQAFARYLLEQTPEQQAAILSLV
UniProt P57076: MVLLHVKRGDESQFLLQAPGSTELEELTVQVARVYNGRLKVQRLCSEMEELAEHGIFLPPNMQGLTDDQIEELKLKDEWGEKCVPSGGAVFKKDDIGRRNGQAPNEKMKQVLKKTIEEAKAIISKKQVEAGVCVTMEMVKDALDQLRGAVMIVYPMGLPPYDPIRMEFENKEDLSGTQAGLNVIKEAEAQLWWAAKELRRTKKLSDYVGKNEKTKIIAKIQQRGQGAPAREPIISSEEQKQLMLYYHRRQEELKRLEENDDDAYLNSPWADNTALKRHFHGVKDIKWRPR
UniProt Q05D32: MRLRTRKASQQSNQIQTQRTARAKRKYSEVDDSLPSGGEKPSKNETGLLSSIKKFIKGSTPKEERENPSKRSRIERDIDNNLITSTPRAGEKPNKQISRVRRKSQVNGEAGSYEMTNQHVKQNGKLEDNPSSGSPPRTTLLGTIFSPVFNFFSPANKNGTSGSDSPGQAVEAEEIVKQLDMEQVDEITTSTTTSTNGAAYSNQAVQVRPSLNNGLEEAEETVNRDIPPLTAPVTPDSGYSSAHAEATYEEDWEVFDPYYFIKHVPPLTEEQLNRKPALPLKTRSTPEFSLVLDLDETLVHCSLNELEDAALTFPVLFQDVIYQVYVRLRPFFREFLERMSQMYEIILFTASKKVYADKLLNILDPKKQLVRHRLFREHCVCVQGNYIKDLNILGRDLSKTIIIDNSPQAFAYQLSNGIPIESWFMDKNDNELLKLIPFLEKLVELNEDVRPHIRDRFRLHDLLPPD

Each target was assayed with Nc1ncnc2c1ncn2[C@@H]1O[C@H](COP(=O)(O)OP(=O)(O)NP(=O)(O)O)[C@@H](O)[C@H]1O [adenylyl imidodiphosphate] (assay: NP40-soluble protein abundance relative to vehicle (solubility fold change) (ratio); higher = more soluble protein in presence of AMP-PNP). Conditions: concentration: 1mM.
How it was run: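 Crude Jurkat lysate, prepared by Dounce homogenisation, was exposed to eight concentrations from 0.1 to 10 mM for 10 min at room temperature and then 3 min at 37 °C. Solubilisation used 0.8% NP40 with benzonase for 60 min at 4 °C, followed by ultracentrifugation and TMT labelling of the supernatant for LC-MS/MS. After vsn normalisation of intensities, each value is the fold change against the detergent-processed vehicle within each replicate, across three independent experiments.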

Target	NP40-soluble protein abundance
UniProt Q01196-11|Q01196-8|Q01196 and related entries	1.02 ± 0.031
HDAC4 (UniProt P56524)	0.9823 ± 0.0059
MPP1 (UniProt Q00013)	1.01 ± 0.015
UniProt Q02535	0.9856 ± 0.0021
TPM4 (UniProt P67936)	1.21 ± 0.19
ITGA1 (UniProt P56199)	1.03 ± 0.019
UniProt P55957 and related entries	1.01 ± 0.029
PITPNA (UniProt Q00169)	0.9785 ± 0.0089
UniProt P62851	1.01 ± 0.053
RPL7A (UniProt P62424)	0.961 ± 0.065
UniProt P67870 and related entries	1.01 ± 0.035
UniProt P84095	0.96 ± 0.038
MLLT1 (UniProt Q03111)	1.06 ± 0.057
UniProt Q00325 and related entries	0.934 ± 0.063
UniProt P56937 and related entries	0.995 ± 0.021
UniProt P98082 and related entries	1.016 ± 0.0042
RPL38 (UniProt P63173)	0.984 ± 0.013
UniProt P61163	0.97 ± 0.05
UniProt P61160	1.02 ± 0.017

Target	NP40-soluble protein abundance
UniProt P84090	1 ± 0.027
RNASEL (UniProt Q05823)	1.09 ± 0.044
GSTO1 (UniProt P78417)	0.945 ± 0.039
UniProt Q05519 and related entries	1.12 ± 0.031
UniProt P60763	1.05 ± 0.035
UniProt P68036 and related entries	0.972 ± 0.07
MRPS25 (UniProt P82663)	1.03 ± 0.041
PRKCQ (UniProt Q04759)	1.07 ± 0.079
UniProt Q00978 and related entries	0.995 ± 0.013
UniProt P57076	1 ± 0.041
UniProt P62263	1.03 ± 0.078
CTDSPL2 (UniProt Q05D32)	1.02 ± 0.014
SLC7A5 (UniProt Q01650)	1 ± 0.021
P62158 (UniProt P0DP23)	1.08 ± 0.061
YBX1 (UniProt P67809)	0.986 ± 0.088
CDK6 (UniProt Q00534)	0.987 ± 0.029
UniProt P62140	1.05 ± 0.033
CTBS (UniProt Q01459)	1 ± 0.023

Same assay, conditions: concentration: 2mM

Target	NP40-soluble protein abundance
UniProt Q01196-11|Q01196-8|Q01196 and related entries	1.05 ± 0.013
HDAC4 (UniProt P56524)	1.01 ± 0.024
MPP1 (UniProt Q00013)	0.964 ± 0.035
UniProt Q02535	0.9757 ± 0.0014
TPM4 (UniProt P67936)	1.42 ± 0.15
ITGA1 (UniProt P56199)	1.04 ± 0.025
UniProt P55957 and related entries	1.11 ± 0.054
PITPNA (UniProt Q00169)	0.941 ± 0.056
UniProt P62851	1.04 ± 0.051
RPL7A (UniProt P62424)	0.94 ± 0.017
UniProt P67870 and related entries	1.02 ± 0.058
UniProt P84095	0.936 ± 0.013
MLLT1 (UniProt Q03111)	1.11 ± 0.089
UniProt Q00325 and related entries	0.855 ± 0.052
UniProt P56937 and related entries	0.926 ± 0.084
UniProt P98082 and related entries	1.03 ± 0.042
RPL38 (UniProt P63173)	0.9661 ± 0.0021
UniProt P61163	0.868 ± 0.12
UniProt P61160	0.922 ± 0.1

Target	NP40-soluble protein abundance
UniProt P84090	1.05 ± 0.014
RNASEL (UniProt Q05823)	1.09 ± 0.062
GSTO1 (UniProt P78417)	0.8985 ± 0.0083
UniProt Q05519 and related entries	1.18 ± 0.11
UniProt P60763	0.957 ± 0.082
UniProt P68036 and related entries	1 ± 0.018
MRPS25 (UniProt P82663)	1.01 ± 0.014
PRKCQ (UniProt Q04759)	0.991 ± 0.11
UniProt Q00978 and related entries	1 ± 0.019
UniProt P57076	1.06 ± 0.084
UniProt P62263	1.02 ± 0.029
CTDSPL2 (UniProt Q05D32)	1.06 ± 0.036
SLC7A5 (UniProt Q01650)	1.01 ± 0.076
P62158 (UniProt P0DP23)	1.03 ± 0.082
YBX1 (UniProt P67809)	1.22 ± 0.36
CDK6 (UniProt Q00534)	0.951 ± 0.022
UniProt P62140	1.01 ± 0.025
CTBS (UniProt Q01459)	1.05 ± 0.067

Same assay, conditions: concentration: 4mM

Target	NP40-soluble protein abundance
UniProt Q01196-11|Q01196-8|Q01196 and related entries	1.042 ± 0.0059
HDAC4 (UniProt P56524)	1 ± 0.037
MPP1 (UniProt Q00013)	1.01 ± 0.028
UniProt Q02535	0.954 ± 0.012
TPM4 (UniProt P67936)	1.27 ± 0.3
ITGA1 (UniProt P56199)	1.04 ± 0.039
UniProt P55957 and related entries	0.998 ± 0.061
PITPNA (UniProt Q00169)	0.9348 ± 0.0059
UniProt P62851	0.961 ± 0.04
RPL7A (UniProt P62424)	0.946 ± 0.12
UniProt P67870 and related entries	1.01 ± 0.031
UniProt P84095	0.925 ± 0.022
MLLT1 (UniProt Q03111)	1.09 ± 0.054
UniProt Q00325 and related entries	0.952 ± 0.077
UniProt P56937 and related entries	0.949 ± 0.012
UniProt P98082 and related entries	1.042 ± 0.0097
RPL38 (UniProt P63173)	0.95 ± 0.039
UniProt P61163	0.935 ± 0.076
UniProt P61160	0.983 ± 0.021

Target	NP40-soluble protein abundance
UniProt P84090	1.05 ± 0.029
RNASEL (UniProt Q05823)	1.11 ± 0.066
GSTO1 (UniProt P78417)	0.925 ± 0.048
UniProt Q05519 and related entries	1.21 ± 0.088
UniProt P60763	0.978 ± 0.062
UniProt P68036 and related entries	0.911 ± 0.083
MRPS25 (UniProt P82663)	1.02 ± 0.07
PRKCQ (UniProt Q04759)	1.02 ± 0.068
UniProt Q00978 and related entries	0.981 ± 0.019
UniProt P57076	1.01 ± 0.011
UniProt P62263	0.993 ± 0.077
CTDSPL2 (UniProt Q05D32)	1.067 ± 0.0076
SLC7A5 (UniProt Q01650)	0.9696 ± 0.0028
P62158 (UniProt P0DP23)	1.08 ± 0.046
YBX1 (UniProt P67809)	1.07 ± 0.12
CDK6 (UniProt Q00534)	0.959 ± 0.03
UniProt P62140	1.04 ± 0.041
CTBS (UniProt Q01459)	1.03 ± 0.017
